Measurements reported in PubChem BioAssay AID504804 (Drosophila RNAi Screening Center, 2011).
Assay: 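Knock-downs shielding fly cells from apoptosis caused by DNA damage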 (primary screen). Cells: Drosophila Kc cells. Reagents: long dsRNA against Drosophila genes, 0.5 µg dsRNA per well. Duration: 96 h (48 h knock-down, then 48 h drug). Conditions: doxorubicin 5 µg/ml for 48 h, added 48 h after dsRNA. Measured: 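Luminescent ATP counts per replicate, not normalised, reflecting viable cells after 48 h dsRNA knock-down followed by 48 h of 5 µg/ml doxorubicin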. Direction: raw ATP luminescence: higher = more viable cells, protection from doxorubicin. Hit rule: 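z-score of 2 or more over plate mean in both duplicates, retained only when retests and separate dsRNAs confirm the protection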.
The screen tested about 19,000 reagents; this is a random part of those that have a named target and a result. Over the whole deposit, 47 (0.25%) were called active. 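Signals are raw, not normalised; exact z-scores behind calls not deposited; actives needed confirmation, so some wells reaching 2 SD are inactive.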 A number with no mark means an inactive call. Reagents against one gene are numbered here. Reagent sequences are not shown.

Mur82C #1 | raw ATP luminescence, replicate 1: 38083; raw ATP luminescence, replicate 2: 34693
Mur82C #2 | raw ATP luminescence, replicate 1: 63017; raw ATP luminescence, replicate 2: 60120
Mitf #1 | raw ATP luminescence, replicate 1: 52220; raw ATP luminescence, replicate 2: 56510
Mitf #2 | raw ATP luminescence, replicate 1: 1.95e5; raw ATP luminescence, replicate 2: 1.90e5
dbf | raw ATP luminescence, replicate 1: 41993; raw ATP luminescence, replicate 2: 73467
Ptpmeg | raw ATP luminescence, replicate 1: 57620; raw ATP luminescence, replicate 2: 65387
CG9072 | raw ATP luminescence, replicate 1: 3.01e5; raw ATP luminescence, replicate 2: 3.17e5
CG5790 | raw ATP luminescence, replicate 1: 1.06e5; raw ATP luminescence, replicate 2: 81317
ckn | raw ATP luminescence, replicate 1: 64437; raw ATP luminescence, replicate 2: 64417
CG32198 | raw ATP luminescence, replicate 1: 60257; raw ATP luminescence, replicate 2: 70653
CG4714 | raw ATP luminescence, replicate 1: 70073; raw ATP luminescence, replicate 2: 77147
CG42724 | raw ATP luminescence, replicate 1: 52480; raw ATP luminescence, replicate 2: 29623

2 successive records from above, quoted:
dbf | raw ATP luminescence, replicate 1: 41993; raw ATP luminescence, replicate 2: 73467
Ptpmeg | raw ATP luminescence, replicate 1: 57620; raw ATP luminescence, replicate 2: 65387
